# According to publication PMC5996148:
# Some of the results follow.
# Columns and labels:
# Test in all cases: protein microarray (ProtoArray v5.0), streptavidin-Alexa Fluor 647
# Conditions in all cases: 3'-biotin; 20 mM Tris (pH 7.5), 5 mM MgCl2, 100 mM KCl, 0.1% Tween-20, A/T-rich and random oligonucleotide blockers; temperature not stated; high values mean tight binding
# COPS5 (human) = test system: COPS5 (human)
# COPZ1 (human) = test system: COPZ1 (human)
# COQ3 (human) = test system: COQ3 (human)
# COQ6 (human) = test system: COQ6 (human)
# COTL1 (human) = test system: COTL1 (human)
# COX15 (human) = test system: COX15 (human)
# COX4I1 (human) = test system: COX4I1 (human)
# COX4I2 (human) = test system: COX4I2 (human)
# COX5B (human) = test system: COX5B (human)
# CPA1 (human) = test system: CPA1 (human)
# CPLX1 (human) = test system: CPLX1 (human)
# CPLX2 (human) = test system: CPLX2 (human)
# CPSF2 (human) = test system: CPSF2 (human)
# CPSF3 (human) = test system: CPSF3 (human)
# CRABP2 (human) = test system: CRABP2 (human)
# CRADD (human) = test system: CRADD (human)
# CRB3 (human) = test system: CRB3 (human)
# CREB3L2 (human) = test system: CREB3L2 (human)
# CRK (human) = test system: CRK (human)
# CRKL (human) = test system: CRKL (human)
sequence,measurement,setting,value
GGGAGGCTGAGGCAGG [G4-1 biotinylated (PQS2)],binding signal,COPS5 (human),-0.32 z-score
same,binding signal,COPZ1 (human),-0.344 z-score
same,binding signal,COQ3 (human),-0.296 z-score
same,binding signal,COQ6 (human),-0.338 z-score
same,binding signal,COTL1 (human),-0.279 z-score
same,binding signal,COX15 (human),-0.275 z-score
same,binding signal,COX4I1 (human),-0.307 z-score
same,binding signal,COX4I2 (human),-0.35 z-score
same,binding signal,COX5B (human),-0.326 z-score
same,binding signal,CPA1 (human),-0.297 z-score
same,binding signal,CPLX1 (human),-0.333 z-score
same,binding signal,CPLX2 (human),-0.312 z-score
same,binding signal,CPSF2 (human),-0.313 z-score
same,binding signal,CPSF3 (human),-0.306 z-score
same,binding signal,CRABP2 (human),-0.343 z-score
same,binding signal,CRADD (human),-0.354 z-score
same,binding signal,CRB3 (human),-0.33 z-score
same,binding signal,CREB3L2 (human),-0.32 z-score
same,binding signal,CRK (human),-0.325 z-score
same,binding signal,CRKL (human),-0.314 z-score

# Two entries picked at random from those above:
sequence,measurement,setting,value
GGGAGGCTGAGGCAGG [G4-1 biotinylated (PQS2)],binding signal,COPS5 (human),-0.32 z-score
same,binding signal,COTL1 (human),-0.279 z-score
